Assay results from publication PMC12175362.

By UniProt entry, the sequences of proteins in these tests, tags left out.
UniProt P06733: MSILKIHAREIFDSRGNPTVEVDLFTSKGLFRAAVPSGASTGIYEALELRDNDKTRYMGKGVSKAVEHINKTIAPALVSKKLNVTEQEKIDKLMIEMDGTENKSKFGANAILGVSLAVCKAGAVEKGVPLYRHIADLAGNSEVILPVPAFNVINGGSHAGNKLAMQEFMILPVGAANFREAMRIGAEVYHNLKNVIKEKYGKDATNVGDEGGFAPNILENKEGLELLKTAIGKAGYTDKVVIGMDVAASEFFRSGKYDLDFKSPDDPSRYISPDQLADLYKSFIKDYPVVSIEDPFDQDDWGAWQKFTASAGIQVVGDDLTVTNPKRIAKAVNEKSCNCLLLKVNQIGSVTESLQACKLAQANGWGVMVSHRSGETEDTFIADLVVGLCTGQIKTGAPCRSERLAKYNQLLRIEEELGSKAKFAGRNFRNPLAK

Target: T1, Doublecortin domain containing 2 (DCDC2) (human (endogenous in ICC tissue)) (UniProt Q9UHG0)
T1 sequence: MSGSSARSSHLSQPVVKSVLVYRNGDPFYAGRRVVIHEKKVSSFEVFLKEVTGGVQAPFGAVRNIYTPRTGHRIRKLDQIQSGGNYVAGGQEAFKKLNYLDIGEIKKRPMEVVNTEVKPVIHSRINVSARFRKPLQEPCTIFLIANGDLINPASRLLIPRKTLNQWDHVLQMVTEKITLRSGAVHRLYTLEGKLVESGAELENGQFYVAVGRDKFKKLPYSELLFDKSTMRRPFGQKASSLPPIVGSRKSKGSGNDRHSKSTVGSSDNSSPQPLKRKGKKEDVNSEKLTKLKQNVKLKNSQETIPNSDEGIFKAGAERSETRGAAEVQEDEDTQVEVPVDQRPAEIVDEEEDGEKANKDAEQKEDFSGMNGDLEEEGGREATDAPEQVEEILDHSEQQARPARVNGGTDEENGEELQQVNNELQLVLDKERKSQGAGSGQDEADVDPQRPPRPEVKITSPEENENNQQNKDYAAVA
Test: affinity purification with mass spectrometry; Co-IP with anti-DCDC2 antibody from ICC tissues; specific band of a silver-stained gel analysed by MS

binding: binds
Substance: Enolase 1 (ENO1) (from UniProt P06733 1-434)

No constants are given. Whether binding was seen depends on the method and setting. Binding seen in cells or lysates may run through a third protein. A yes stands for co-enrichment or nearness to the bait. Other partners may have been found.
